# PubChem BioAssay AID1259405, NCATS – 2018
# Purpose: 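Silenced genes that increase secreted GFP made by CHO cells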 (primary screen)
# Cell system: Chinese hamster CHO-K1 ovary cells with stable secreted eGFP expression
# Reagents: single siRNA against mouse genes, 0.8 pmol siRNA per well (2 µl of 400 nM stock)
# Duration: 3 days
# Measurement: 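Percent of the per-plate non-targeting control median for intracellular GFP per well by laser scanning cytometry and for cell viability by ATP luminescence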
# Scale: GFP, % of control: higher = more GFP per well, higher productivity; viability (ATP), % of control: higher = more viable cells (more ATP)
# Rule for the call: 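a knock-down is called active if GFP reaches 120% or more of non-targeting control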
# The whole screen tested about 50,000 reagents; this is a part drawn at random. In the full data, about 4,000 (8%) were called active. 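Mouse siRNA library applied to hamster cells; one well for each siRNA.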
gene symbol,PubChem SID,"GFP, % of control","viability (ATP), % of control",call
Prm1,SID363554979,66.3,53,inactive
Prm1,SID363568426,68.1,42,inactive
Prm1,SID363586485,59.8,69.4,inactive
Or2b2,SID363554447,53.5,85.3,inactive
Or2b2,SID363567894,66.7,61,inactive
Or2b2,SID363585251,48.6,101,inactive
Fimp1,SID363542505,66.9,29.5,inactive
Fimp1,SID363551996,73,55.7,inactive
Fimp1,SID363559601,97.6,104,inactive
Tcfl5,SID363573707,70,98.1,inactive
Tcfl5,SID363581451,59.1,74.1,inactive
Tcfl5,SID363583915,101,118,inactive
Zfp157,SID363573179,68.3,61.8,inactive
Zfp157,SID363588418,84.8,80.2,inactive
Jmjd4,SID363546761,93.3,56.9,inactive
Jmjd4,SID363548517,64.6,83,inactive
Jmjd4,SID363560695,76.7,109,inactive
Stub1,SID363582539,126,140,active
Stub1,SID363584299,74.2,77.8,inactive
Ankrd9,SID363546691,65.8,40.9,inactive
Ankrd9,SID363548447,70.9,76.7,inactive
Ankrd9,SID363560625,108,118,inactive
Arhgap19,SID363545306,33.1,57.7,inactive
Arhgap19,SID363548819,79.3,91.7,inactive
Arhgap19,SID363562625,49,51.6,inactive
Abhd16a,SID363546582,79.8,32.7,inactive
Abhd16a,SID363548338,63.7,79.2,inactive
Abhd16a,SID363560516,79.4,71.7,inactive
G6pc1,SID363575083,111,104,inactive
G6pc1,SID363580715,126,73.9,active
G6pc1,SID363582827,113,91.3,inactive
Pde2a,SID363569778,110,89.8,inactive
Pde2a,SID363576818,61.3,54.6,inactive
Pde2a,SID363578226,71.6,51.4,inactive
Faah,SID363569710,75.4,70.6,inactive
Faah,SID363576750,66.4,65.7,inactive
Faah,SID363578158,44,63.6,inactive
Meltf,SID363570167,67.6,78.7,inactive
Meltf,SID363576503,73.2,76.2,inactive
Meltf,SID363579671,72.5,77.1,inactive
Pou2af1,SID363554556,34.1,36.6,inactive
Pou2af1,SID363568003,70.5,50.7,inactive
Pou2af1,SID363586062,95.4,113,inactive
Ift70a1,SID363542587,83.1,69.8,inactive
Ift70a1,SID363552078,80.9,79.9,inactive
Ift70a1,SID363559683,51.4,81.6,inactive
Mttp,SID363574792,68.4,46.6,inactive
Mttp,SID363575848,61.3,66.9,inactive
Mttp,SID363580424,90.3,68.5,inactive

Called active (from the list above):
gene symbol,PubChem SID,"GFP, % of control","viability (ATP), % of control",call
Stub1,SID363582539,126,140,active
G6pc1,SID363580715,126,73.9,active

More records follow:
gene symbol,PubChem SID,"GFP, % of control","viability (ATP), % of control",call
Atg2b,SID363543707,103,74.7,inactive
Atg2b,SID363550029,98.3,111,inactive
Atg2b,SID363551443,135,75.9,active
Atg2b,SID363559048,65.4,71.5,inactive
Atg2b,SID363564538,71.2,62.1,inactive
Atg2b,SID363588083,94.3,112,inactive
Or8c16,SID363554454,49.4,40.5,inactive
Or8c16,SID363567901,165,99.4,active
Or8c16,SID363585960,104,90.4,inactive
Dbnl,SID363541120,74.2,57.1,inactive
Dbnl,SID363555747,77.4,82.4,inactive
Dbnl,SID363566036,76.3,73.1,inactive
Aoc1l3,SID363544884,71.2,87.5,inactive
Aoc1l3,SID363551212,127,83.1,active
Aoc1l3,SID363557761,80.6,89.4,inactive
Ifi202b,SID363555302,107,80.7,inactive
Ifi202b,SID363563963,111,92.4,inactive
Ifi202b,SID363587509,120,95.8,active
Dcaf5,SID363556603,28.7,50.4,inactive
Dcaf5,SID363563507,80.1,59.6,inactive
Dcaf5,SID363587053,93.7,99.9,inactive
Usp20,SID363547256,96.9,106,inactive
Usp20,SID363558025,93.2,70.1,inactive
Usp20,SID363559783,72.6,92.8,inactive
Grep1,SID363540537,60,48.9,inactive
Grep1,SID363542988,62.7,67.9,inactive
Grep1,SID363552481,61.5,44.5,inactive
Bmal2,SID363573520,66.9,91.1,inactive
Bmal2,SID363588759,84.8,68.1,inactive
Farsa,SID363584534,103,79.3,inactive
Farsa,SID363589564,105,85.2,inactive
Rbp3,SID363574829,107,97.7,inactive
Rbp3,SID363575885,52.4,90.2,inactive
Rbp3,SID363580461,101,94.4,inactive
Or2t47,SID363554128,78.7,52.6,inactive
Or2t47,SID363567575,94.3,44.7,inactive
Or2t47,SID363584932,22.2,79.4,inactive
